This passage reports binding results from US20060204512A1.

The chains behind the UniProt entries cited, without tags or fusion partners. Where a name states a change or a piece, a line headed by the entry shows the natural chain unless it says otherwise. Residues count along the entry.
UniProt P52799, residues 28-229: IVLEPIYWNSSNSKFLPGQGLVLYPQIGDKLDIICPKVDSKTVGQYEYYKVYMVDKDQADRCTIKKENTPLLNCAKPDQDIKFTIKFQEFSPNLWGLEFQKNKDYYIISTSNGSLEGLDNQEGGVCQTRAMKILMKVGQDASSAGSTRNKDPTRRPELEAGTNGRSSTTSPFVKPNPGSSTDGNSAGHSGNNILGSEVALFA
UniProt P02768: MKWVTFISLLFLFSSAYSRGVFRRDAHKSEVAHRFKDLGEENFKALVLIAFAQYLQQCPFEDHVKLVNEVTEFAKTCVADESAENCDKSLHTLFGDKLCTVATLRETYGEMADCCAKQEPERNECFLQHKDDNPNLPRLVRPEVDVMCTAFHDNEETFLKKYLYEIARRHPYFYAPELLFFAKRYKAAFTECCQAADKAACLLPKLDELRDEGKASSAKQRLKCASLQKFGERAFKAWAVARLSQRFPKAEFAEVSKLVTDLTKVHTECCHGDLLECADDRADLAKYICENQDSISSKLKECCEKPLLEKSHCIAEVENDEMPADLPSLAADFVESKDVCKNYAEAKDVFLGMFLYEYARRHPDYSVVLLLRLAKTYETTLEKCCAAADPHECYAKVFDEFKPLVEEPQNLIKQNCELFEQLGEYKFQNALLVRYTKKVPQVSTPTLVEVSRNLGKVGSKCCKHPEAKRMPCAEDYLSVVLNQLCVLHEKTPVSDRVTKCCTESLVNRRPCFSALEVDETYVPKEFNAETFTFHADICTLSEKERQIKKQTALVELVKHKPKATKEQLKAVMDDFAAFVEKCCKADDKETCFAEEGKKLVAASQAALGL

Results are given in words; binding and its absence hold for the method and conditions named. Some entries that bind do so weakly or less than the wild type. For some assays here: Where a sequence is shown, tags or fusion partners need not be part of it.

Assay [1] deals with T1, B4EC-AP reagent (protein fusion of EphB4 ectodomain with placental alkaline phosphatase) (UniProt P54760).
T1 sequence (looked up): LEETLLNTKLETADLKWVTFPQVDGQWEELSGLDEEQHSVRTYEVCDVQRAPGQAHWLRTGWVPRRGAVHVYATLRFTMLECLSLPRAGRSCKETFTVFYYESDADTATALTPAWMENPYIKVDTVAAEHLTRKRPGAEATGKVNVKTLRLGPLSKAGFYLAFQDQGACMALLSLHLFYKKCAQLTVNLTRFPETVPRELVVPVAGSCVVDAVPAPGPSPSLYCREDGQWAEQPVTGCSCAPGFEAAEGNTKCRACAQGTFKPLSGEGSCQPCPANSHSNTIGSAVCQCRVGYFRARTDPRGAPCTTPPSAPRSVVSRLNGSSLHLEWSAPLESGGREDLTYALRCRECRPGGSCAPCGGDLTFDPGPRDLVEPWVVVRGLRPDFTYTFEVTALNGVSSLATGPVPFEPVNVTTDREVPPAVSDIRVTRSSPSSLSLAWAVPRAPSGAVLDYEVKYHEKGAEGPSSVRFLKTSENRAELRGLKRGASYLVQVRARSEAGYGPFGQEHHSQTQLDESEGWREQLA
The experiment in a line: biochemical assays; format for B2EC not described.

The target of assay [2] is B2EC-AP reagent (protein fusion of Ephrin B2 ectodomain with placental alkaline phosphatase) (UniProt P52799). Description: assay not described.

Consider “B2EC protein (from UniProt P52799 28-225) (ligand)”, for which the binding result in assay [1] is given as “binds”.
Take “EphB4 ectodomain fusion to the C-terminus of HSA (from UniProt P02768 25-609; P54760 16-539)”: the binding entry in assay [2] was “binds”.
